# Data: PubChem BioAssay AID2685 (National Center for Advancing Translational Sciences (NCATS), 2010)
# Out of some 320,000 compounds screened, about 2,100 (0.66%) were called active. This list was built around the results that the source calls inconclusive (neither active nor inactive); the mix of calls is not that of the screen. The call rests on the fitted dose curve; in most records, active means well fitted inhibition curve with a large enough effect in the signal ratio, with a control signal flat (not every such curve was filed as active); inconclusive means small, poorly fitted or top-dose-only effect, or effect the other way, or a change in a side signal; inactive means flat fitted curve, though single readings scatter; the % refers to the signal ratio. Where the call is inconclusive, the potency comes from a doubtful curve fit.
# Test: qHTS Assay for Lipid Storage Modulators in Drosophila S3 Cells
# Details: BODIPY lipid droplet fluorescence, 18-24 h, cells fed with added oleic acid; lipid storage change, negative = inhibition: at 46.1 µM (top of the series) unless noted
# In short: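 Laser-scanning cytometry quantifies lipid droplet accumulation (500–530 nm total intensity; droplet/cell object ratio) in oleic acid-fed (400 uM added) Drosophila S3 cells treated with a concentration series. 20 uM Triacsin C defined 100% inhibition.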
# On the % scale 0 is the no-effect control and ±100 the full control effect; potency means the concentration at half of the fitted maximal effect.
SMILES,Potency,"lipid storage change, negative = inhibition"
NC(=O)c1ccc(NC(=O)COC(=O)C(Cc2ccccc2)NC(=O)c2ccccc2)cc1 (stereo unspecified),"inconclusive: 0.82 µM [falling, full curve, poor fit]",
Cc1ccc(S(=O)(=O)Nc2ccccc2F)cc1C(=O)NCc1ccco1,"inconclusive: 3.66 µM [falling, single point]",
COc1ccccc1-c1cnn2c(N3CCOCC3)cc(C)nc12,,inconclusive: -3.9%
COc1ccccc1C(=O)NCCC(=O)OCC(=O)Nc1ccc(S(N)(=O)=O)cc1,"inconclusive: 1.03 µM [falling, full curve]",
COc1ccccc1/C=N/OCc1cc(C(C)=O)ccc1OC,,inconclusive: 18.2%
CCOC(=O)C1CCCN(C(=O)c2cnn3c(C(F)F)cc(-c4ccc(C)cc4)nc23)C1 (stereo unspecified),"inconclusive: 2.59 µM [activator, single point]",
Cc1ccc(Cl)cc1NC(=O)CN1CCN(S(=O)(=O)N2CCC(C)CC2)CC1,,inconclusive: 50.6%
CC1(C)Cc2nc(-c3ccccc3)nc(SCC(=O)N3CCOCC3)c2CO1,,inconclusive: -100%
O=C(CN1C(=O)NC2(CCCc3ccccc32)C1=O)N1CCN(c2cccc(C(F)(F)F)c2)CC1 (stereo unspecified),,inconclusive: -26.4%
Cc1nc2c(ccc3nc(NC(=O)c4ccc(S(=O)(=O)N(C)C)cc4)sc32)s1,,inconclusive: 77.3%
C=CCn1cnc2c(nnn2-c2ccc(Cl)cc2)c1=O,,inconclusive: 3.87%
COc1ccc(Oc2nc(C)nc3c2oc2ccccc23)cc1,,inconclusive: 200%
CN(CC(=O)Nc1cccc(F)c1)C(=O)c1cc(S(=O)(=O)N2CCCCC2)ccc1N1CCOCC1,,inconclusive
CC(=O)NCCc1ccc(S(=O)(=O)N2CCCC2)cc1,,inconclusive: -34.9%
N#Cc1ccc(-n2nccc2-c2cnc3n(c2=O)CCS3)cc1,"inconclusive: 0.13 µM [falling, full curve, poor fit]",
CN1CCN(Cc2c(C(=O)N/N=C/c3cccc(Br)c3)nnn2-c2nonc2N)CC1,,inconclusive: 76.8%
Cc1ccc(C(=O)NNC2=NC(C)(C)Cc3ccccc32)cc1,,inconclusive: 18.7%
COC(=O)c1sc(N2C(=O)C(O)=C(C(=O)c3ccc(C)o3)C2c2ccc(F)cc2)nc1C (stereo unspecified),"inconclusive: 6.51 µM [rising, single point]",
COC(=O)C1CCCCN1C(=O)c1ccc(OC2CCN(C(C)=O)CC2)c(OC)c1 (stereo unspecified),,inconclusive: -36.8%
COCc1cc(CN2CCN(CCCc3ccccc3)C(CCO)C2)ccc1OC (stereo unspecified),"inconclusive: 14.6 µM [falling, partial curve]",
O=C(COc1ncnc2c(Cl)cc(Cl)cc12)NCCC1=CCCCC1,,inconclusive: -8.1%
CCOC(=O)N1CCN(CC(=O)Nc2ccc(F)cc2F)CC1,,inconclusive: -12.3%
Cc1ccccc1-c1nnc(-c2ccc(Br)cc2)o1,"inconclusive: 18.4 µM [activator, partial curve, poor fit]",
CC(Oc1ccccc1)c1ccnn1S(=O)(=O)c1ccccc1 (stereo unspecified),"inconclusive: 29.1 µM [activator, partial curve]",
CCOc1ccccc1CN1CCNC(=O)C1CC(=O)NCCN1CCOC1=O (stereo unspecified),active: 2.31 µM,
Cc1ccc(S(=O)(=O)N(Cc2ccccc2)c2ccccc2C(=O)N2CCCCC2)cc1,"inconclusive: 29.1 µM [activator, single point]",

SMILES,Potency,"lipid storage change, negative = inhibition"
Cc1ccc(S(=O)(=O)Oc2ccc(N3C(=O)C4C5CCC(C5)C4C3=O)cc2)cc1 (stereo unspecified),,inconclusive: 3.19%
COc1ccccc1NC(=O)c1cc(S(=O)(=O)N2CCc3ccccc32)ccc1F,,inconclusive: 21.2%
COC(=O)c1scc(C)c1N/N=C(\C)c1ccc(F)cc1F,,inconclusive: -15%
CCOCCCn1cnc2c(c1=O)c1nc3ccccc3nc1n2-c1ccccc1,,inconclusive: 22.4%
CCOC(=O)N1CCN(c2c(-c3ccc(C(C)C)cc3)c(=O)c2=O)CC1,,inconclusive: -46.6%
COc1ccc2[nH]c(=O)c(C(c3nnnn3C3CCCCC3)N3CCN(C)CC3)cc2c1 (stereo unspecified),"inconclusive: 16.4 µM [activator, single point]",
O=C(Cc1cccs1)Nc1ccc(Cl)c(S(=O)(=O)N2CCOCC2)c1,,inconclusive
COc1ccc(S(=O)(=O)N2CCCCC2)cc1NC(=O)CCNC(=O)c1ccccc1Cl,,inconclusive: -83.5%
COc1cc(/C=N/NC(=O)c2cc(-c3c(C)nn(-c4ccccc4)c3C)n[nH]2)ccc1O,"inconclusive: 6.51 µM [cytotoxic, single point]",
CCN(CC)CC(C)OC(=O)c1ccccc1Cl (stereo unspecified),,inconclusive: -15%
COc1c(Br)cc([N+](=O)[O-])c(OC)c1C(=O)NC(=O)Nc1nc(C)cc(C)n1,,inconclusive: 8.18%
CN(C)CCCN(C(=O)CCc1ccccc1)c1nc2c(F)cccc2s1,,inconclusive: -27.7%
CCOC(=O)C1CCN(C(=O)C(CCSC)NC(=O)COc2ccccc2)CC1 (stereo unspecified),,inactive
COc1cc(C(=O)Nc2ccc3c(c2)OCCO3)ccc1-n1cnnn1,"inconclusive: 2.06 µM [activator, partial curve, poor fit]",
CC1CCCC(C)N1C(=O)COC(=O)CNC(=O)c1ccc(Cl)cc1Cl (stereo unspecified),,inconclusive
COc1cc([N+](=O)[O-])cc(/C=N/NC(=O)CSc2ccccn2)c1O,,inconclusive: 14%
Cc1ccc(-n2ncc3c(=O)n(CC(=O)Nc4cccc(Cl)c4)cnc32)cc1C,,inconclusive: -0.176%
O=C(COC(=O)C1CC(O)CN1S(=O)(=O)c1ccc(Cl)cc1)c1ccccc1Cl (stereo unspecified),"inconclusive: 18.4 µM [activator, single point]",
O=S(=O)(Nc1ccc2nc(N3CCOCC3)sc2c1)c1ccc(Cl)cc1,,inactive
O=C(CCN1C(=O)[C@@H]2Cc3ccccc3CN2C1=O)NCc1ccccc1Cl,"inconclusive: 6.51 µM [activator, partial curve, poor fit]",
NS(=O)(=O)c1ccc(-n2nncc2C23CC4CC(CC(C4)C2)C3)cc1,,inconclusive: -52.8%
O=[N+]([O-])c1ccc(N2CCN(CCO)CC2)cc1Sc1ccccn1,,inconclusive: -25% [at 9.22 µM]
COC(=O)c1ccc(Oc2nc(NC(C)(C)C)nc(N3CCOCC3)n2)cc1,"inconclusive: 0.092 µM [falling, full curve, poor fit]",
CCCCNc1c([N+](=O)[O-])ncn1C,,inconclusive: 4.28%
O=C(Nc1cccc(F)c1)Nc1ccnn1C1CCN(C(=O)c2ccccn2)CC1,,inconclusive: -26.3%
Cc1cc(SCC(=O)NC2CCCC2)nc2ccccc12,"inconclusive: 25.9 µM [activator, partial curve, poor fit]",

SMILES,Potency,"lipid storage change, negative = inhibition"
COc1ccccc1/C=C/C(=O)OCC(=O)Nc1ccccc1Sc1ccccc1,"inconclusive: 6.51 µM [activator, partial curve, poor fit]",
Cc1ccc(C(=O)NCc2ccc(N3CCN(C)CC3)cc2)cc1C,,inconclusive: -13.5%
CC1CCCCN1C(=O)COc1ccc2ccc(=O)oc2c1 (stereo unspecified),"inconclusive: 0.206 µM [falling, full curve]",
CCC1(C)OC(=O)N2CCc3c(C)[nH]c4c(C)ccc(c34)C21C (stereo unspecified),,inconclusive: -6.56%
COc1ccc(NC(=O)CN(C)C(=O)c2cn(-c3ccccc3)nc2-c2ccc(Cl)cc2)cc1,,inconclusive: -35.7%
Nc1ccc(C(=O)O)cc1,,inconclusive: 13.2%
Cc1ccc(C(=O)Nc2ccc(C)c(S(=O)(=O)Nc3ccccc3Cl)c2)s1,"inconclusive: 6.51 µM [rising, partial curve, poor fit]",
CN(CC(=O)Nc1cc(S(=O)(=O)N2CCCC2)ccc1Cl)Cc1cccs1,,inconclusive: 12.3%
Cc1ccccc1C(=O)Nc1cccc(C#N)c1,,inconclusive: 13.6%
Cc1nn(CC(=O)NN)c(C)c1Br,,inconclusive: 0.469%
O=C(Cc1c(F)cccc1Cl)Nc1ccc(S(=O)(=O)N2CCCC2)cc1,,inconclusive: 15.3%
Cc1ccc(S(=O)(=O)N2CCN(S(=O)(=O)c3ccc4c(c3)OCCO4)CC2)cc1,,inconclusive: -2.81%
COc1ccc(CNC(=O)CSc2nc(C)cs2)cc1,,inconclusive: -17.8%
Cc1ccc(-n2cc(CCCCCCCCC(=O)O)nn2)cc1,,inconclusive: -50.1%
CC(=O)Oc1ccc2c(=O)c(-c3ccccc3)coc2c1,,inconclusive: 5.56%
COc1ccc(OC)c(CNC(=O)C2CCCN(c3ncnc4c3nc3n4CCCCC3)C2)c1 (stereo unspecified),active: 2.31 µM,
CN(CC(=O)Nc1ccc(F)cc1)CC(=O)N1CCCCCC1,,inconclusive: -1.14%
COC(=O)c1ccc(C(=O)OC)c(-n2c(=O)c3ccccc3c3ccccc3c2=O)c1,"inconclusive: 20.6 µM [cytotoxic, single point]",
Cc1ccc(C(=O)CN2C(=O)NC3(CCCCC3C)C2=O)s1 (stereo unspecified),"inconclusive: 4.61 µM [falling, full curve]",
O=c1oc2ccccc2c(Nc2cccc(O)c2)c1[N+](=O)[O-],,inconclusive: 5.45%
CC(=O)Nc1ccc(S(=O)(=O)NCC2CCC(C(=O)NCCCN3CCCC3=O)CC2)cc1 (stereo unspecified),,inconclusive: -21.8%
Cc1ccc(N2C(=O)SC(N(CC(=O)O)c3cccc(C)c3)C2=O)cc1 (stereo unspecified),,inconclusive: 13.7%
O=C(O)c1ccccc1C(=O)c1cccs1,"inconclusive: 32.6 µM [falling, single point]",
COc1ccc(-n2c(=S)[nH]c3cc(C(=O)NCc4ccco4)ccc3c2=O)cc1OC,,inconclusive: 52.2%

# Part of the list above, with tabs.
SMILES	Potency	lipid storage change, negative = inhibition
COc1ccccc1/C=C/C(=O)OCC(=O)Nc1ccccc1Sc1ccccc1	inconclusive: 6.51 µM [activator, partial curve, poor fit]	
Cc1ccc(C(=O)NCc2ccc(N3CCN(C)CC3)cc2)cc1C		inconclusive: -13.5%
CC1CCCCN1C(=O)COc1ccc2ccc(=O)oc2c1 (stereo unspecified)	inconclusive: 0.206 µM [falling, full curve]	
CCC1(C)OC(=O)N2CCc3c(C)[nH]c4c(C)ccc(c34)C21C (stereo unspecified)		inconclusive: -6.56%
COc1ccc(NC(=O)CN(C)C(=O)c2cn(-c3ccccc3)nc2-c2ccc(Cl)cc2)cc1		inconclusive: -35.7%
